Consider 2 molecules from PMC6193130.

Amino acid sequences for entries named in this document (tags omitted).
UniProt O95477: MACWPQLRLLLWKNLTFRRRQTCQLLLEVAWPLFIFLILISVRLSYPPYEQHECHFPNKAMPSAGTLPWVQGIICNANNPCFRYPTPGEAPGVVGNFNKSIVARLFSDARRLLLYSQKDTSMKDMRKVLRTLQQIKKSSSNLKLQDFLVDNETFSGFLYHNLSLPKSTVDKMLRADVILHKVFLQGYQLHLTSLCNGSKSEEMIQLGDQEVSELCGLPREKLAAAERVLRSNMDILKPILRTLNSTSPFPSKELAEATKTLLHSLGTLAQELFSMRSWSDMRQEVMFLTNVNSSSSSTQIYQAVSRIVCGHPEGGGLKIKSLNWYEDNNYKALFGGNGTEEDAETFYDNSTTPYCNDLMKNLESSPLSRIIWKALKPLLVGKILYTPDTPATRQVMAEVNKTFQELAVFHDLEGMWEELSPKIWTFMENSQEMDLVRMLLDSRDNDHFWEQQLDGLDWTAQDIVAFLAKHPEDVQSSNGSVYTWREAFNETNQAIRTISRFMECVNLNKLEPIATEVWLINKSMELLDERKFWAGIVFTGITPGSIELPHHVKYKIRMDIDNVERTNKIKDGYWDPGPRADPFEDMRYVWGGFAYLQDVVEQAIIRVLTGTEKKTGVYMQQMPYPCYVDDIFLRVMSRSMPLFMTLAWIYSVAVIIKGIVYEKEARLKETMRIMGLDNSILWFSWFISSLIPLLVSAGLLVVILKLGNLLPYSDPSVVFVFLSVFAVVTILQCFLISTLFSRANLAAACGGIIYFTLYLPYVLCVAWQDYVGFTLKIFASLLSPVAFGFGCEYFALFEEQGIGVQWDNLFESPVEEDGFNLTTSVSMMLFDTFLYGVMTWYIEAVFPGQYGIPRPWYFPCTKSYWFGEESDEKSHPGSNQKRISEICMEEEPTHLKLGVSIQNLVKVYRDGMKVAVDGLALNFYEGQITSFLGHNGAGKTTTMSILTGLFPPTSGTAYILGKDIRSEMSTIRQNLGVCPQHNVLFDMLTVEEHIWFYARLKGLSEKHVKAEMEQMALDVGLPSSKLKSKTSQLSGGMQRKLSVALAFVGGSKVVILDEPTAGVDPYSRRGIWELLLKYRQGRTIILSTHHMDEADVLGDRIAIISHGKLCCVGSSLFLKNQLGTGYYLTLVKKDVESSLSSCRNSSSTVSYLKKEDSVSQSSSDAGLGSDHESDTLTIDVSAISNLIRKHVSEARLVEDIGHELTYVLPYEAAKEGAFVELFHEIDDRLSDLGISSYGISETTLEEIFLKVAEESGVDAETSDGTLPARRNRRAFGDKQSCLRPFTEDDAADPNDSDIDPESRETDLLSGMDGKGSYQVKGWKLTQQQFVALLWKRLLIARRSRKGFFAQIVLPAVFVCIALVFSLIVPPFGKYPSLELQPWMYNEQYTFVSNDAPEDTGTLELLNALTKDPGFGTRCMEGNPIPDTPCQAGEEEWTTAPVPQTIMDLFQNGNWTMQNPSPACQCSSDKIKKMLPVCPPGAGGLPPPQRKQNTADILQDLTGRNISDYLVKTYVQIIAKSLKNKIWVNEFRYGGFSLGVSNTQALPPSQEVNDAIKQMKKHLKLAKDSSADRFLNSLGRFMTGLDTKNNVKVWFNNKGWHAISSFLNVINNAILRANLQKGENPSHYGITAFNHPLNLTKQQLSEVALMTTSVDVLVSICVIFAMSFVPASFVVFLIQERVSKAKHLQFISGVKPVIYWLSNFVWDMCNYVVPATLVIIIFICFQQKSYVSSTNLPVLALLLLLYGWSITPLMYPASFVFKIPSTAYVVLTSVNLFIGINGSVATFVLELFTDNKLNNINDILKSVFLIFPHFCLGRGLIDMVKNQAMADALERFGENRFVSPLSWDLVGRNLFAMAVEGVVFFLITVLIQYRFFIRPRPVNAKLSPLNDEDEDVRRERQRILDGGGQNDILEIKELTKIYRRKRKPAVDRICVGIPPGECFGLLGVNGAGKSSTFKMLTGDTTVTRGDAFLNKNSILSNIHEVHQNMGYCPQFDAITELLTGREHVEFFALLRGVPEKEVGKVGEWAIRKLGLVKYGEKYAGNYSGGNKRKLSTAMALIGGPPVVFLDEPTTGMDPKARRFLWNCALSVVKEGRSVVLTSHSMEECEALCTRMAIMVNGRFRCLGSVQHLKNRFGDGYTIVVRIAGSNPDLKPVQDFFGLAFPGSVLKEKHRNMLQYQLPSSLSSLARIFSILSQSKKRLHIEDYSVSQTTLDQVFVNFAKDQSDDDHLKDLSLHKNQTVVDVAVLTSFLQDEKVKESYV

In experiment [1] the target is ATP-binding cassette transporter A1 (ABCA1) (human (endogenous in HEK293)) (UniProt O95477). Put plainly: co-IP; as a1, from LPS-stimulated cells.
The target is the same in experiment [2]. Put plainly: co-IP; as a1, from LPS-stimulated cells. This is another data set of the same source.
Experiment [3] shares this target. Put plainly: co-IP; membrane proteins extracted from whole cell lysates; IP with anti-ABCA1 antibody overnight at 4°C, protein A/G PLUS-Agarose, blot; with or without EDTA; with or without TO901317.
Experiment [4] shares this target. Put plainly: co-IP; cells with full-length and fragment ANXA1 plasmids; co-IP of ANXA1 constructs with ABCA1, blot.

These are yes or no findings as the source states them, for the method shown. Binding seen in cells or lysates may run through a third protein. Some entries that bind do so weakly or less than the wild type.

B1: annexin A1 (ANXA1) (protein, UniProt P04083 1-346)
chain: MAMVSEFLKQAWFIENEEQEYVQTVKSSKGGPGSAVSPYPTFNPSSDVAALHKAIMVKGVDEATIIDILTKRNNAQRQQIKAAYLQETGKPLDETLKKALTGHLEEVVLALLKTPAQFDADELRAAMKGLGTDEDTLIEILASRTNKEIRDINRVYREELKRDLAKDITSDTSGDFRNALLSLAKGDRSEDFGVNEDLADSDARALYEAGERRKGTDVNVFNTILTTRSYPQLRRVFQKYTKYSKHDMNKVLDLELKGDIEKCLTAIVKCATSKPAFFAEKLHQAMKGVGTRHKALIRIMVSRSEIDMNDIKAFYQKMYGISLCQAILDETKGDYEKILVALCGGN
B1: the binding result in experiment [1] is on record as “no binding (condition: with LPS stimulation of the cells)”; in experiment [2] it was “binds”; in experiment [3] it was “binds”.

B2: C3 domain of ANXA1 (amino acids 196 to 274) (domain or fragment, UniProt P04083 196-274)
chain: EDLADSDARALYEAGERRKGTDVNVFNTILTTRSYPQLRRVFQKYTKYSKHDMNKVLDLELKGDIEKCLTAIVKCATSK
For the molecule B2, the binding result in experiment [4] is “binds”.
